Patent publication US20030158089A1 (priority 2002, published 2003)

Assay: peptide synthesis
Settings: whole synthesis

Substance: N-acetyl-D-Lys(ε-biotin)-D-Arg-D-Arg-D-Arg-D-Gln-D-Arg-D-Arg-D-Lys-D-Lys-D-Arg-NH2
- final LC-MS purity: >99%
